The other results are listed elsewhere or left out. The list holds hits alone, and they repeat only in part.
Assays:
Assay in all cases: PRISMA enrichment of interactor (LFQ) in peptide spot vs all other peptide spots (log2 fold change); higher = stronger / more specific binding of the interactor to the peptide
[1] = molecular target: YLPM1, P49750
Protocol: (§1)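 PRISMA: 15-aa overlapping tiles (offset 8 aa) of 60 microproteins, plus SOS1/GLUT1 control peptides, were spot-synthesized on cellulose membranes in triplicate. Membranes were incubated with benzonase-treated HEK293T lysate, and bound proteins were identified by LC-MS/MS with LFQ. Enrichment is the log2 fold change of each protein in one spot versus all other spots. Only interactors passing the significance cutoff are listed.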

Amino acid sequences for entries named in this document (tags omitted).
POLR1C, O15160, UniProt O15160, whole entry: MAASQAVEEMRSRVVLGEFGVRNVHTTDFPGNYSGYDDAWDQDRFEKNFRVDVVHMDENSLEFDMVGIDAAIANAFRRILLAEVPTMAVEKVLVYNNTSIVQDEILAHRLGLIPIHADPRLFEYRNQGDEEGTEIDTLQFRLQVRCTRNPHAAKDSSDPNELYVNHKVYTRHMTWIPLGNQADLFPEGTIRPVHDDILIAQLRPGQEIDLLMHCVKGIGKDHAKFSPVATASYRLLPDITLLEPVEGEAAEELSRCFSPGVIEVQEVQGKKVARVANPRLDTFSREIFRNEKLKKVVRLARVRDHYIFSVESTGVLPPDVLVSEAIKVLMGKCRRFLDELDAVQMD
TF, P02787, UniProt P02787, whole entry: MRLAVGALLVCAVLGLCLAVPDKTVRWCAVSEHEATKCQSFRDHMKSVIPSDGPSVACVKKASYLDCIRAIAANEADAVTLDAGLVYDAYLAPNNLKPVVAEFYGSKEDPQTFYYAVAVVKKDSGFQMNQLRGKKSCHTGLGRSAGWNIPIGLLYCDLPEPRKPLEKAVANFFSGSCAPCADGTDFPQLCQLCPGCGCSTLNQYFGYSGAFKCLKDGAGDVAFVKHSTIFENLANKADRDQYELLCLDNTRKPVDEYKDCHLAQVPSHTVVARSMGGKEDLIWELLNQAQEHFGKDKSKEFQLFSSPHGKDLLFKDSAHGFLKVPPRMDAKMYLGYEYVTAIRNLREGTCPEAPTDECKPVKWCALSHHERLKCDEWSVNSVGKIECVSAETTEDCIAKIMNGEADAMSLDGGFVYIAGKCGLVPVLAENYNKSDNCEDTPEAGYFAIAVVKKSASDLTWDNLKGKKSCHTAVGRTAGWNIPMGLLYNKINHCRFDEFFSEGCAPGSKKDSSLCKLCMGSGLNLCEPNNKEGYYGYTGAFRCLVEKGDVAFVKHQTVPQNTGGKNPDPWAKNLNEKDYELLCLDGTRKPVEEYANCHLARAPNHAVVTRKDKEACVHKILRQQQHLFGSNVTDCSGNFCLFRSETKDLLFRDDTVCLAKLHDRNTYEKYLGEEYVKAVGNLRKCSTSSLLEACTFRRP
ITPR2, Q14571, UniProt Q14571, whole entry: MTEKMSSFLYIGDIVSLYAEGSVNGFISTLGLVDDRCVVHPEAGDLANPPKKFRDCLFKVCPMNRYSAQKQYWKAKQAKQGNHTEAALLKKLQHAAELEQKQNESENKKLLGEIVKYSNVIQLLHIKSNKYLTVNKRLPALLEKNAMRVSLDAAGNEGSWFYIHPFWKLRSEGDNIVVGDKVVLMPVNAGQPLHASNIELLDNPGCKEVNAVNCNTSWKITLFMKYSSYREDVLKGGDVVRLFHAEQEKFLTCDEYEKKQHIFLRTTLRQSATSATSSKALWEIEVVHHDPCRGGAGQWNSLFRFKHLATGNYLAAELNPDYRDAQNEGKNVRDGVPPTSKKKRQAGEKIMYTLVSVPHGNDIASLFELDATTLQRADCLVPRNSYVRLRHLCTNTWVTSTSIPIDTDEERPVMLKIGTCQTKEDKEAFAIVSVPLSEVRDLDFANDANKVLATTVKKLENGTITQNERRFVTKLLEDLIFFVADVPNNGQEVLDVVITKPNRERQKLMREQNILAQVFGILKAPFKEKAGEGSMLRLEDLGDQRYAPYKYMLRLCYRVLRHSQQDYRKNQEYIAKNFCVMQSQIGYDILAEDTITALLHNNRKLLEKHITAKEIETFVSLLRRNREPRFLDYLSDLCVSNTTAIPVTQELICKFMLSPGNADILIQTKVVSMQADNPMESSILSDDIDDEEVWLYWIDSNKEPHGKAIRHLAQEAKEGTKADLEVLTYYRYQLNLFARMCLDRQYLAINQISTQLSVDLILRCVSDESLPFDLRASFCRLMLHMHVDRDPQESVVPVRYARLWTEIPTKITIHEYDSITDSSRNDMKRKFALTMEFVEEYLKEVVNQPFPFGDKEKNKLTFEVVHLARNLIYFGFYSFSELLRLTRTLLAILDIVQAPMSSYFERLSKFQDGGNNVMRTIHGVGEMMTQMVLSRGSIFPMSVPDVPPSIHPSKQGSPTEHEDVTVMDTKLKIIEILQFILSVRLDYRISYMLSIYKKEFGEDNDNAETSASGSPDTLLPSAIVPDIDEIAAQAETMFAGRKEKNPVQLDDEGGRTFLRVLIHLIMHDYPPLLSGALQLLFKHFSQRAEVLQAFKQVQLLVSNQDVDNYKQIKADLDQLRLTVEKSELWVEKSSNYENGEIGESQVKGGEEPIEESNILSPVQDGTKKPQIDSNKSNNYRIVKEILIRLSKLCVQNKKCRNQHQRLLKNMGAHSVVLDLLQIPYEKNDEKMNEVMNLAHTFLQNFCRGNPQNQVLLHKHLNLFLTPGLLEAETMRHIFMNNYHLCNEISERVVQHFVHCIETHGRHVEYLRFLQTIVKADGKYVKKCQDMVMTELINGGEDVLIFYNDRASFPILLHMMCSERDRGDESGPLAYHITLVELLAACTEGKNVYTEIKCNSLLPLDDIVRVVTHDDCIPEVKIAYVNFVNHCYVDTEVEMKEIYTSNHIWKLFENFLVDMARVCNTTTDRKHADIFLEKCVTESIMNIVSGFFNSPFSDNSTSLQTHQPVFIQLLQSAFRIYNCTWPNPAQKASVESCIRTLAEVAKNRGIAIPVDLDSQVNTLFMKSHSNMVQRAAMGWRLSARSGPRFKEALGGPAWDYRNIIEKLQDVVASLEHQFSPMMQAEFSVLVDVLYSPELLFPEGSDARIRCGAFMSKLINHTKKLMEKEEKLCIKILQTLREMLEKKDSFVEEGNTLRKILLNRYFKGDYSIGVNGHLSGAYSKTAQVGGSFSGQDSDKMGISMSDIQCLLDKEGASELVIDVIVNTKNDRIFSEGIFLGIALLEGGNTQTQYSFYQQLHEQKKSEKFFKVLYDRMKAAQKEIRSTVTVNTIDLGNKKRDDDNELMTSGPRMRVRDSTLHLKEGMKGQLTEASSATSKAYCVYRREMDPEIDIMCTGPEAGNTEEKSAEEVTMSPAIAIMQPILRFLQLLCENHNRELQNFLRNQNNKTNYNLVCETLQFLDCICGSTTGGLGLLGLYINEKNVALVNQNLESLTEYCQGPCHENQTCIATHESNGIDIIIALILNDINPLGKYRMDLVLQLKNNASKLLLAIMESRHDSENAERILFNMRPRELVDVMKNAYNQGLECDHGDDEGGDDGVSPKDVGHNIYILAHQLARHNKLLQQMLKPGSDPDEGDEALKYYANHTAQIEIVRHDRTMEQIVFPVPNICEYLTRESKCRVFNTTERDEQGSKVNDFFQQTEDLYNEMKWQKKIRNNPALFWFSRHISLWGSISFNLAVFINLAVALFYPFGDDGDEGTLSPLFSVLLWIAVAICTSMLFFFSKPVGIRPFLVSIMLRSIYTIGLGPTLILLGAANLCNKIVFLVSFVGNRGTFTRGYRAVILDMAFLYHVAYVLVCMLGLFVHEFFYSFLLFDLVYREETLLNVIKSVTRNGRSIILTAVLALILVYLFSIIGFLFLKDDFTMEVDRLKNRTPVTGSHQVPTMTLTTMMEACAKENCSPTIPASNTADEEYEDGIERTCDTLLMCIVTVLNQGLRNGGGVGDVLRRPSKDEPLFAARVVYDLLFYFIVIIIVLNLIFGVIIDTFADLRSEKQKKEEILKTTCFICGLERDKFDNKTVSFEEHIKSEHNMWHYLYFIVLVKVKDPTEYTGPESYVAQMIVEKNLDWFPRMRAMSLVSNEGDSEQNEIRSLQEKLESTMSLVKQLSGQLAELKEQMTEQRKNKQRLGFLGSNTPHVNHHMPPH
PFN1, P07737, UniProt P07737, whole entry: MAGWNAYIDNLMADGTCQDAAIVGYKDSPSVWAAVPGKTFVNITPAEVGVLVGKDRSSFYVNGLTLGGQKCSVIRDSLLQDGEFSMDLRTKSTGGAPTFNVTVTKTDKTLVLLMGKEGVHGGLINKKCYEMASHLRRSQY
PSMD3, O43242, UniProt O43242, whole entry: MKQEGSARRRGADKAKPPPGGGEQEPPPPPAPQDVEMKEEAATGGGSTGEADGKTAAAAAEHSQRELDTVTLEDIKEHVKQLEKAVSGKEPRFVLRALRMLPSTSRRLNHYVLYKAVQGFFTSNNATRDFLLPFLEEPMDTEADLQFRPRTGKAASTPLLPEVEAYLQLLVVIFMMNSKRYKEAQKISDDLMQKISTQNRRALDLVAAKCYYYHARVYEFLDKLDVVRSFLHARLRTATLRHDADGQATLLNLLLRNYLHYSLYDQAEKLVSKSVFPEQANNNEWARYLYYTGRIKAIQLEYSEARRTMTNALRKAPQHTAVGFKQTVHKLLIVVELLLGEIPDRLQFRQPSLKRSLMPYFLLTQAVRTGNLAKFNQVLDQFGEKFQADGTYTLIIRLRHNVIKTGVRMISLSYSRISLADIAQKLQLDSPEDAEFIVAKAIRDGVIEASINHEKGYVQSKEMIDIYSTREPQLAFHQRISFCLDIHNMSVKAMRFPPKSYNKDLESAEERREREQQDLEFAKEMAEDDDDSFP
SMN2, Q16637, UniProt Q16637, whole entry: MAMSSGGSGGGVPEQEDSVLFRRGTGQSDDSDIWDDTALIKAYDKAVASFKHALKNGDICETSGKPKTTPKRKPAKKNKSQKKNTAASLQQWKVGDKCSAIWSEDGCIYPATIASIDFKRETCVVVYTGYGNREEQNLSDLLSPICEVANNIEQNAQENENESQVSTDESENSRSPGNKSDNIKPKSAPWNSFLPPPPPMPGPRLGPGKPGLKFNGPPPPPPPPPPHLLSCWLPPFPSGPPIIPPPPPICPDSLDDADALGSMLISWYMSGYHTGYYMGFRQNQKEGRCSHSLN
MTPN, P58546, UniProt P58546, whole entry: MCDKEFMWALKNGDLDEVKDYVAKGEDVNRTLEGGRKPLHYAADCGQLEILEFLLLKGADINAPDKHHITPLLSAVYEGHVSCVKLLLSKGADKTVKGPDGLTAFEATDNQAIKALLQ
PCBP2, Q15366, UniProt Q15366, whole entry: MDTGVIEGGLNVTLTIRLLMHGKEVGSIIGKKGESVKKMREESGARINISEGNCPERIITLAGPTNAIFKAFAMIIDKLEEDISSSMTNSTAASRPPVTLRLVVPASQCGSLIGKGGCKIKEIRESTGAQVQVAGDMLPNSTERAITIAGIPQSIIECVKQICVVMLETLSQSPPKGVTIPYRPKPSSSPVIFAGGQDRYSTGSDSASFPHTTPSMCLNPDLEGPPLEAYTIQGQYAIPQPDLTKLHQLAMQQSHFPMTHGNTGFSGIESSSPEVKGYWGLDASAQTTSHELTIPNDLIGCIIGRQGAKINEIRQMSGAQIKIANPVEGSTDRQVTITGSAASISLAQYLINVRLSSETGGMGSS
PES1, O00541, UniProt O00541, whole entry: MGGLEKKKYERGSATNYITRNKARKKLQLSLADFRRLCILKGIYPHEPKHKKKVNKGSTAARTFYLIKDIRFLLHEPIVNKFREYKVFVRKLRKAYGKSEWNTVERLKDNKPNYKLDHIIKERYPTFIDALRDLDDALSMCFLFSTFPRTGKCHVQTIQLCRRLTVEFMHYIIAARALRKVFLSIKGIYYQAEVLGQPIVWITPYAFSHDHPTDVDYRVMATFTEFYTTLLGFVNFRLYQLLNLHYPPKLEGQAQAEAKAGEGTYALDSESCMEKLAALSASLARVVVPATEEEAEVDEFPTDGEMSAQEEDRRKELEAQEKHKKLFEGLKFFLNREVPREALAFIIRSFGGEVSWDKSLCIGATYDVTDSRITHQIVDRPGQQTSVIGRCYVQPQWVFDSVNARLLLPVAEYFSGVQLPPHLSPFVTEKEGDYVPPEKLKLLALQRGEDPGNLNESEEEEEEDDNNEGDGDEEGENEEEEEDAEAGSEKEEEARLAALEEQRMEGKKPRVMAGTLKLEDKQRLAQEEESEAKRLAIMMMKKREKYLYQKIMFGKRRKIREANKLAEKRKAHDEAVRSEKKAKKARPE
COX6B1, P14854, UniProt P14854, whole entry: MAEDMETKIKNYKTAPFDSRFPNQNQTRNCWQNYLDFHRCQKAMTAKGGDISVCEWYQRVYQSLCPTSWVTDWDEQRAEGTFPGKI
MPG, P29372, UniProt P29372, whole entry: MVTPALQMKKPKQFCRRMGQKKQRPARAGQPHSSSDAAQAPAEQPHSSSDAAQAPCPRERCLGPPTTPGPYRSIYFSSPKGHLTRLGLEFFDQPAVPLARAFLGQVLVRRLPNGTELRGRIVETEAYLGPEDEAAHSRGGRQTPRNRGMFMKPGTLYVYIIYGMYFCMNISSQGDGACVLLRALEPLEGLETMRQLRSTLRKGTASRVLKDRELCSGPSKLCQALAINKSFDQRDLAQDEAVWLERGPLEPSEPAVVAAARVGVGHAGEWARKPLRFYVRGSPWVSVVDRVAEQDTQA
PDHA1, P08559, UniProt P08559, whole entry: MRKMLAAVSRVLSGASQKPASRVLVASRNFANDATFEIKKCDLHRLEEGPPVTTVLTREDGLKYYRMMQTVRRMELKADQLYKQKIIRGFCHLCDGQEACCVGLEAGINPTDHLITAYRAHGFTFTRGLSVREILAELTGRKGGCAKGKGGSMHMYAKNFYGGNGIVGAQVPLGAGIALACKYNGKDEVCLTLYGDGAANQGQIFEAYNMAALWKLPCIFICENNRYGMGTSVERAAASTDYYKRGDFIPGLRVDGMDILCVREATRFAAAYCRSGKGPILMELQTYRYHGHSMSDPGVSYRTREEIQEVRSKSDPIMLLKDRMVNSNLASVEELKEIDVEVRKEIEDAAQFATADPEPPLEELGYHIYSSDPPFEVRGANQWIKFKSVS

[2] = molecular target: ZNF622, Q969S3
Protocol: as §1

[3] = molecular target: hCG_1984214
Protocol: as §1

[4] = molecular target: ARIH1, Q9Y4X5
Protocol: as §1

[5] = molecular target: BRAT1, Q6PJG6
Protocol: as §1

[6] = molecular target: C11orf58, O00193
Protocol: as §1

[7] = molecular target: COL4A3BP, Q9Y5P4
Protocol: as §1

[8] = molecular target: COPS8, Q99627
Protocol: as §1

[9] = molecular target: EIF5A, P63241
Protocol: as §1

[10] = molecular target: ENSA, O43768
Protocol: as §1

[11] = molecular target: FOXK1, P85037
Protocol: as §1

[12] = molecular target: NAP1L1, P55209
Protocol: as §1

[13] = molecular target: PDXDC1, Q6P996
Protocol: as §1

[14] = molecular target: POLR1C, O15160
Protocol: as §1

[15] = molecular target: POP1, Q99575
Protocol: as §1

[16] = molecular target: PTBP1, P26599
Protocol: as §1

[17] = molecular target: PTMA, P06454
Protocol: as §1

[18] = molecular target: RBMS1, P29558
Protocol: as §1

[19] = molecular target: RNPS1, Q15287
Protocol: as §1

[20] = molecular target: SEH1L, Q96EE3
Protocol: as §1

[21] = molecular target: SHMT1, P34896
Protocol: as §1

[22] = molecular target: SRSF7, Q16629
Protocol: as §1

[23] = molecular target: TF, P02787
Protocol: as §1

[24] = molecular target: TRAFD1, O14545
Protocol: as §1

[25] = molecular target: TXNDC12, O95881
Protocol: as §1

[26] = molecular target: VCL, P18206
Protocol: as §1

[27] = molecular target: ARL2, P36404
Protocol: as §1

[28] = molecular target: DDX51, Q8N8A6
Protocol: as §1

[29] = molecular target: IFRD2, Q12894
Protocol: as §1

[30] = molecular target: ITPR2, Q14571
Protocol: as §1

[31] = molecular target: NUP43, Q8NFH3
Protocol: as §1

[32] = molecular target: PDCL3, Q9H2J4
Protocol: as §1

[33] = molecular target: TFB2M, Q9H5Q4
Protocol: as §1

[34] = molecular target: ARGLU1, Q9NWB6
Protocol: as §1

[35] = molecular target: DLGAP5, Q15398
Protocol: as §1

[36] = molecular target: EIF1AD, Q8N9N8
Protocol: as §1

[37] = molecular target: EIF4G2, P78344
Protocol: as §1

[38] = molecular target: MAGT1, Q9H0U3
Protocol: as §1

[39] = molecular target: MRPS21, P82921
Protocol: as §1

[40] = molecular target: PDK3, Q15120
Protocol: as §1

[41] = molecular target: PFN1, P07737
Protocol: as §1

[42] = molecular target: SART1, O43290
Protocol: as §1

[43] = molecular target: SEMG2, Q02383
Protocol: as §1

[44] = molecular target: ARHGEF2, Q92974
Protocol: as §1

[45] = molecular target: ASMTL, O95671
Protocol: as §1

[46] = molecular target: C11orf98, E9PRG8
Protocol: as §1

[47] = molecular target: CDC37, Q16543
Protocol: as §1

[48] = molecular target: DAB2IP, Q5VWQ8
Protocol: as §1

[49] = molecular target: DEF8, Q6ZN54
Protocol: as §1

[50] = molecular target: FLOT1, O75955
Protocol: as §1

[51] = molecular target: GNG12, Q9UBI6
Protocol: as §1

[52] = molecular target: PSMD3, O43242
Protocol: as §1

[53] = molecular target: SMN2, Q16637
Protocol: as §1

[54] = molecular target: ARL6IP4, Q66PJ3
Protocol: as §1

[55] = molecular target: BAZ1B, Q9UIG0
Protocol: as §1

[56] = molecular target: CBSL
Protocol: as §1

[57] = molecular target: COG4, Q9H9E3
Protocol: as §1

[58] = molecular target: DDX31, Q9H8H2
Protocol: as §1

[59] = molecular target: DNAJA1, P31689
Protocol: as §1

[60] = molecular target: EHD1, Q9H4M9
Protocol: as §1

[61] = molecular target: HCFC1, P51610
Protocol: as §1

[62] = molecular target: MTPN, P58546
Protocol: as §1

[63] = molecular target: PCBP2, Q15366
Protocol: as §1

[64] = molecular target: PES1, O00541
Protocol: as §1

[65] = substrate: PNN, Q9H307
Protocol: as §1

[66] = molecular target: RPF2, Q9H7B2
Protocol: as §1

[67] = molecular target: ZC3H11A, O75152
Protocol: as §1

[68] = molecular target: ZC3H18, Q86VM9
Protocol: as §1

[69] = molecular target: COX6B1, P14854
Protocol: as §1

[70] = molecular target: SPTAN1, Q13813
Protocol: as §1

[71] = molecular target: VCP, P55072
Protocol: as §1

[72] = molecular target: CBX4, O00257
Protocol: as §1

[73] = molecular target: LARS, Q9P2J5
Protocol: as §1

[74] = molecular target: PSMB5, P28074
Protocol: as §1

[75] = molecular target: PYCR3, Q53H96
Protocol: as §1

[76] = molecular target: ARL3, P36405
Protocol: as §1

[77] = molecular target: CBX8, Q9HC52
Protocol: as §1

[78] = molecular target: CCDC58, Q4VC31
Protocol: as §1

[79] = molecular target: CHPT1, Q8WUD6
Protocol: as §1

[80] = substrate: CNP, P09543
Protocol: as §1

[81] = molecular target: FGA, P02671
Protocol: as §1

[82] = molecular target: HP, P00738
Protocol: as §1

[83] = molecular target: MPG, P29372
Protocol: as §1

[84] = molecular target: NDUFA6, P56556
Protocol: as §1

[85] = molecular target: NOB1, Q9ULX3
Protocol: as §1

[86] = molecular target: OSTC, Q9NRP0
Protocol: as §1

[87] = molecular target: PDHA1, P08559
Protocol: as §1

[88] = molecular target: RBM38, Q9H0Z9
Protocol: as §1

[89] = molecular target: ZNF638, Q14966
Protocol: as §1

RSQDIGRSGAALETL [SNHG8]
PRISMA enrichment of interactor (log2) [1]: 6.03
PRISMA enrichment of interactor (log2) [2]: 4.59
PRISMA enrichment of interactor (log2) [3]: 4.23

PSMTPSQTCRKKARI [PALLD]
PRISMA enrichment of interactor (log2) [4]: 4.83
PRISMA enrichment of interactor (log2) [5]: 6
PRISMA enrichment of interactor (log2) [6]: 5.25
PRISMA enrichment of interactor (log2) [7]: 5.75
PRISMA enrichment of interactor (log2) [8]: 3.64
PRISMA enrichment of interactor (log2) [9]: 4.62
PRISMA enrichment of interactor (log2) [10]: 5.93
PRISMA enrichment of interactor (log2) [11]: 4.93
PRISMA enrichment of interactor (log2) [12]: 5.14
PRISMA enrichment of interactor (log2) [13]: 4.03
PRISMA enrichment of interactor (log2) [14]: 4.66
PRISMA enrichment of interactor (log2) [15]: 6.21
PRISMA enrichment of interactor (log2) [16]: 5.37
PRISMA enrichment of interactor (log2) [17]: 5.49
PRISMA enrichment of interactor (log2) [18]: 5.61
PRISMA enrichment of interactor (log2) [19]: 4.87
PRISMA enrichment of interactor (log2) [20]: 6.43
PRISMA enrichment of interactor (log2) [21]: 5.11
PRISMA enrichment of interactor (log2) [22]: 6.38
PRISMA enrichment of interactor (log2) [23]: 4.35
PRISMA enrichment of interactor (log2) [24]: 7.78
PRISMA enrichment of interactor (log2) [25]: 4.84
PRISMA enrichment of interactor (log2) [26]: 5

RPALLQMLKKVLPRK [RP11-12K22.1]
PRISMA enrichment of interactor (log2) [27]: 7.4
PRISMA enrichment of interactor (log2) [28]: 5.53
PRISMA enrichment of interactor (log2) [29]: 6.11
PRISMA enrichment of interactor (log2) [30]: 6.09
PRISMA enrichment of interactor (log2) [31]: 5.5
PRISMA enrichment of interactor (log2) [32]: 6.24
PRISMA enrichment of interactor (log2) [33]: 5.59

EPRWAGNRGLGPAGA [TBX5-AS1]
PRISMA enrichment of interactor (log2) [34]: 4.74
PRISMA enrichment of interactor (log2) [35]: 5.24
PRISMA enrichment of interactor (log2) [36]: 5.15
PRISMA enrichment of interactor (log2) [37]: 4.71
PRISMA enrichment of interactor (log2) [38]: 8.32
PRISMA enrichment of interactor (log2) [39]: 7.35
PRISMA enrichment of interactor (log2) [40]: 3.86
PRISMA enrichment of interactor (log2) [41]: 5.47
PRISMA enrichment of interactor (log2) [42]: 4.47
PRISMA enrichment of interactor (log2) [43]: 5.17

AITASLRGLQGVRSM [JPX]
PRISMA enrichment of interactor (log2) [44]: 4.66
PRISMA enrichment of interactor (log2) [45]: 4.92
PRISMA enrichment of interactor (log2) [46]: 5.62
PRISMA enrichment of interactor (log2) [47]: 4.64
PRISMA enrichment of interactor (log2) [48]: 3.76
PRISMA enrichment of interactor (log2) [49]: 5.27
PRISMA enrichment of interactor (log2) [50]: 4.74
PRISMA enrichment of interactor (log2) [51]: 5.9
PRISMA enrichment of interactor (log2) [52]: 6.33
PRISMA enrichment of interactor (log2) [53]: 4.64

ARERQLEKGLVFLNG [MIEF-MP]
PRISMA enrichment of interactor (log2) [54]: 4.31
PRISMA enrichment of interactor (log2) [55]: 9.23
PRISMA enrichment of interactor (log2) [56]: 6.83
PRISMA enrichment of interactor (log2) [57]: 6.19
PRISMA enrichment of interactor (log2) [58]: 4.93
PRISMA enrichment of interactor (log2) [59]: 7.06
PRISMA enrichment of interactor (log2) [60]: 4.76
PRISMA enrichment of interactor (log2) [61]: 6.01
PRISMA enrichment of interactor (log2) [62]: 5.56
PRISMA enrichment of interactor (log2) [63]: 5.21
PRISMA enrichment of interactor (log2) [64]: 6.06
PRISMA enrichment of interactor (log2) [65]: 5.01
PRISMA enrichment of interactor (log2) [66]: 6.3
PRISMA enrichment of interactor (log2) [67]: 7.72
PRISMA enrichment of interactor (log2) [68]: 7.91

DTFGGPGRRVCWWGR [RP11-464C19.3]
PRISMA enrichment of interactor (log2) [34]: 8.27
PRISMA enrichment of interactor (log2) [69]: 5.25
PRISMA enrichment of interactor (log2) [70]: 5.11
PRISMA enrichment of interactor (log2) [71]: 7.38

LSRTFSSRKVVKAHA [IDI2-AS1]
PRISMA enrichment of interactor (log2) [44]: 4.51
PRISMA enrichment of interactor (log2) [72]: 4.22
PRISMA enrichment of interactor (log2) [73]: 5.37
PRISMA enrichment of interactor (log2) [74]: 4.03
PRISMA enrichment of interactor (log2) [75]: 4.88

AIRRGVVRVVGGGGQ [TUG1]
PRISMA enrichment of interactor (log2) [76]: 5.43
PRISMA enrichment of interactor (log2) [77]: 6.03
PRISMA enrichment of interactor (log2) [78]: 5.59
PRISMA enrichment of interactor (log2) [79]: 4.21
PRISMA enrichment of interactor (log2) [80]: 4.48
PRISMA enrichment of interactor (log2) [60]: 5
PRISMA enrichment of interactor (log2) [81]: 8.21
PRISMA enrichment of interactor (log2) [82]: 4.78
PRISMA enrichment of interactor (log2) [83]: 4.83
PRISMA enrichment of interactor (log2) [84]: 4.64
PRISMA enrichment of interactor (log2) [85]: 4.87
PRISMA enrichment of interactor (log2) [86]: 4.58
PRISMA enrichment of interactor (log2) [87]: 6.88
PRISMA enrichment of interactor (log2) [88]: 5.37
PRISMA enrichment of interactor (log2) [26]: 5.88
PRISMA enrichment of interactor (log2) [89]: 5.17

From the supplement of paper PMC10032668
